Laboratory results from paper doi:10.1101/843219.
Results are given in words; binding and its absence hold for the method and conditions named. Binding seen in cells or lysates may run through a third protein. Some binding calls cover weakened binding; strength is not graded here.

Chains of the proteins cited; added tags and fusions are not shown.
UniProt Q6ZPE2: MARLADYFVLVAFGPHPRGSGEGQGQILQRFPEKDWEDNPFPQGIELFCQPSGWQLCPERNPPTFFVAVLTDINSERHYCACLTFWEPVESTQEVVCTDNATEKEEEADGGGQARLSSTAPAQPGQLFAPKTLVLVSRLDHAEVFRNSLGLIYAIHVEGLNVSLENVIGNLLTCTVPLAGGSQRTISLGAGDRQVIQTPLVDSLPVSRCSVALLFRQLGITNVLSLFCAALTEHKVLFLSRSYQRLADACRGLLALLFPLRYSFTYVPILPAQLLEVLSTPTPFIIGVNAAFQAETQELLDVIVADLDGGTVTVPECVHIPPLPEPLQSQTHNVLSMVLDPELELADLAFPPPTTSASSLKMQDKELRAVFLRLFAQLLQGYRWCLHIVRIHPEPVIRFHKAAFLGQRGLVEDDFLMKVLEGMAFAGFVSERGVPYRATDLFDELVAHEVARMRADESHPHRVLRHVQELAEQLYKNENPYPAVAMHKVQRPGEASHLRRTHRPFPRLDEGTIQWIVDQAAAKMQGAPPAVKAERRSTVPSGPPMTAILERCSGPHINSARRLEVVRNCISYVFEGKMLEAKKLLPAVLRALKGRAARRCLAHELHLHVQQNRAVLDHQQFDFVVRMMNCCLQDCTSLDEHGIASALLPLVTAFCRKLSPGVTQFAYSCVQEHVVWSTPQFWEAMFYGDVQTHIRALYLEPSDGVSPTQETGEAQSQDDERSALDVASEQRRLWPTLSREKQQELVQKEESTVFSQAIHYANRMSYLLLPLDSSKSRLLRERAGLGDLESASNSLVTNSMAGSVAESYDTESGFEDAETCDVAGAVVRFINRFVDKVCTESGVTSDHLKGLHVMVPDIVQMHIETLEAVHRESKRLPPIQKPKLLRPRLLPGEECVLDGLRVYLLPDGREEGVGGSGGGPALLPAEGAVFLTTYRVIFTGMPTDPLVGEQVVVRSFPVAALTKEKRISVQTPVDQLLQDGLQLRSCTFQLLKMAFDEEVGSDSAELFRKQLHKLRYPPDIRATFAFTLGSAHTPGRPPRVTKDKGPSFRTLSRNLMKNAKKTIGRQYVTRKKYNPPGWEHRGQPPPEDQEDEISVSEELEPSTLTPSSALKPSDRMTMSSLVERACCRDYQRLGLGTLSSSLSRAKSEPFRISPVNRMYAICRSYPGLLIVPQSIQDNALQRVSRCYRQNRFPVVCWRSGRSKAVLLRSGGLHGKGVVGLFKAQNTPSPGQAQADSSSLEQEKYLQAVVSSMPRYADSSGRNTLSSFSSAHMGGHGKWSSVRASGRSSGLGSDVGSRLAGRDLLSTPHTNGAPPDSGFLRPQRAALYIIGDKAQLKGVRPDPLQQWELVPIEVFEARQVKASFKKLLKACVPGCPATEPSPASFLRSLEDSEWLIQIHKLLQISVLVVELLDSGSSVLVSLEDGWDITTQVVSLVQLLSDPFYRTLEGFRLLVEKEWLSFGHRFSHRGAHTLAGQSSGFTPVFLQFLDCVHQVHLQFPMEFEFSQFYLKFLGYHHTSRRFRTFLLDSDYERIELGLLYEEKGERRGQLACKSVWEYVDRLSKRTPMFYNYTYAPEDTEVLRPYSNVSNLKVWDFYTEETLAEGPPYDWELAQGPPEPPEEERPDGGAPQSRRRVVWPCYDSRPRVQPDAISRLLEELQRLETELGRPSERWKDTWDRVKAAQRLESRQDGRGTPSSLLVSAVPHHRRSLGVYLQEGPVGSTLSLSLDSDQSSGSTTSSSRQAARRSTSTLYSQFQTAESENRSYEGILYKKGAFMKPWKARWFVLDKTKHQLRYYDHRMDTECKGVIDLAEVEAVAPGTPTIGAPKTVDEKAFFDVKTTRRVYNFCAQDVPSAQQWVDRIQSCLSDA
UniProt E9PXF8: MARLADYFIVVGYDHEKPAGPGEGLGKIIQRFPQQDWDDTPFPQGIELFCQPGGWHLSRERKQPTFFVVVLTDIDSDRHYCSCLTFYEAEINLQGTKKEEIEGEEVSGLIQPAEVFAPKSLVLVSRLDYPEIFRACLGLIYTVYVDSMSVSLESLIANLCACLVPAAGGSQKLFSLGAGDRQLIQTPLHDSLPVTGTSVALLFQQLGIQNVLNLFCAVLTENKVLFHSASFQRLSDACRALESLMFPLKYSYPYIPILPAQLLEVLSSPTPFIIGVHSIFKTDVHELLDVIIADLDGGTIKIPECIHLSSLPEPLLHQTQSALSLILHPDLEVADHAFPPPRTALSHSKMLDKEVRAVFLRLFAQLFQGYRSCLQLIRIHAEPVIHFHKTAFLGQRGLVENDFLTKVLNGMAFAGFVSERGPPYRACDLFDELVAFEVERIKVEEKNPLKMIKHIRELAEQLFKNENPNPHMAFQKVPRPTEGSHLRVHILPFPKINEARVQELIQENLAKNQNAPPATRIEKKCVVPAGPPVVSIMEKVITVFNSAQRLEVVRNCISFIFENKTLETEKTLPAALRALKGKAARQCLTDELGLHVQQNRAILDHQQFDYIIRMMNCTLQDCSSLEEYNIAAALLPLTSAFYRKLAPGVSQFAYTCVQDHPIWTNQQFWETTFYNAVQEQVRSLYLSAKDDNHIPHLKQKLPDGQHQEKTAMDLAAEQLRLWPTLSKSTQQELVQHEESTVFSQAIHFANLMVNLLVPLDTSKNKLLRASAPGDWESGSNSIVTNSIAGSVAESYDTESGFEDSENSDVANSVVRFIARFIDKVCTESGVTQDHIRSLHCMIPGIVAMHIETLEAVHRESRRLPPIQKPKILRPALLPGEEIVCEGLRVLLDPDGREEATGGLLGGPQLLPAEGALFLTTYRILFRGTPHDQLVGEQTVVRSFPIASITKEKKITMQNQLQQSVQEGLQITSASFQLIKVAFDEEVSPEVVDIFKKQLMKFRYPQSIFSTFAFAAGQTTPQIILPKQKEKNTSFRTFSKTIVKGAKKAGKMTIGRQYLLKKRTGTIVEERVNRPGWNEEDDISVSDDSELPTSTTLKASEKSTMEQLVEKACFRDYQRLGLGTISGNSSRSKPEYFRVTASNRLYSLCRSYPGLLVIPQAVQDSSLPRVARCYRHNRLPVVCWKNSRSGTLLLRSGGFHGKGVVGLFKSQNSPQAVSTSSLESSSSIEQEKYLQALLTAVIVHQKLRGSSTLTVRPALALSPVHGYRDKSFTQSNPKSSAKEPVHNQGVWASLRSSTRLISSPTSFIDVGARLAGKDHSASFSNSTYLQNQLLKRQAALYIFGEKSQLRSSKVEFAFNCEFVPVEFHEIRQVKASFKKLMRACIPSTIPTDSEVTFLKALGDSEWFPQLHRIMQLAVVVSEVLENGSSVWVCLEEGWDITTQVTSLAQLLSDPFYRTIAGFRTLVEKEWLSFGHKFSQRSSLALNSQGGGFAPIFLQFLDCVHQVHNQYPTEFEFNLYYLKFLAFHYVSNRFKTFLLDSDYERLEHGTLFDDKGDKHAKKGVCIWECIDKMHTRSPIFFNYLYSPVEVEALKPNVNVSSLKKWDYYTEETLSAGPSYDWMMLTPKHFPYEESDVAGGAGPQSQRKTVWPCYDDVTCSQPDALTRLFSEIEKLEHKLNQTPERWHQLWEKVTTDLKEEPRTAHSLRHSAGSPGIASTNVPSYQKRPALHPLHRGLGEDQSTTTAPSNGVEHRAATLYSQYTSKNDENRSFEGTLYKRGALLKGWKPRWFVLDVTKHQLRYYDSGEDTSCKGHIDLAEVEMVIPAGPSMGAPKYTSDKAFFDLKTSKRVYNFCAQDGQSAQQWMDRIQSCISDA

Target: Mtmr5 (endogenous, mouse brain) (mouse (endogenous in brain)) (UniProt Q6ZPE2)
Assay: co-IP

binding: binds weakly
Substance: Mtmr13 (endogenous, mouse brain) (from UniProt E9PXF8 1-1872)
